PubChem BioAssay AID504786, Drosophila RNAi Screening Center, 2011
In all, the deposit lists about 21,000 reagents; this is an unselected part of those with a known target gene and a result. 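Primary screen; positive scores mean lost reporter signal, so the sign may be inverted from the usual convention.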 A plus sign joins genes that one reagent is predicted to hit.

Test: 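Positive regulators of HIF-driven reporter output in Drosophila cells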 (primary screen)
System: Drosophila S2 cells with a stable HIF luciferase reporter
Knock-down reagent: long dsRNA against Drosophila genes, about 0.2 µg dsRNA per well of a 384-well plate
Duration: three days of knock-down, then 20 h of DFO before reading
Conditions: desferrioxamine (DFO) at 100 µM, an iron chelator that mimics hypoxia, for 20 h
Measured: 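Firefly luciferase driven by the mouse ldh-a hypoxia-response element, measured after 20 h of 100 µM DFO; z-scores per plate, higher means more signal lost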
Reading the numbers: z-score: higher = stronger loss of HIF reporter signal

The first 5 records, to show the layout:
no.	predicted target	DRSC id	z-score, replicate 1	z-score, replicate 2	z-score, replicate 3	z-score, replicate 4
1	toc (GeneID 33526)	DRSC00169	-0.4	-0.3		
2	toc (GeneID 33526)	DRSC00171	-0.3	-0.5		
3	toc (GeneID 33526)	DRSC00842	-0.2	-0.5		
4	CG14926 (GeneID 34567)	DRSC02409	-0.3	-0.5		
5	Ugt37D1 (GeneID 53511)	DRSC02645	-0.1	-0.5		

The listing, from the start:
no.	predicted target	DRSC id	z-score, replicate 1	z-score, replicate 2	z-score, replicate 3	z-score, replicate 4
1	toc (GeneID 33526)	DRSC00169	-0.4	-0.3		
2	toc (GeneID 33526)	DRSC00171	-0.3	-0.5		
3	toc (GeneID 33526)	DRSC00842	-0.2	-0.5		
4	CG14926 (GeneID 34567)	DRSC02409	-0.3	-0.5		
5	Ugt37D1 (GeneID 53511)	DRSC02645	-0.1	-0.5		
6	Roe1 (GeneID 36508)	DRSC07534	-0.1	-0.5		
7	Mp20 (GeneID 36468)	DRSC07474	-0.1	-0.4		
8	CycE (GeneID 34924)	DRSC03295	3.4	4.1		
9	CycE (GeneID 34924)	DRSC03296	0.7	4.4		
10	CG4872 (GeneID 32676)	DRSC19921	-0.4	-0.9		
11	Uba1 (GeneID 35998)	DRSC07567	-0.4	1		
12	CG3062 (GeneID 31396)	DRSC18572	-0.3	-0.3		
13	nwk (GeneID 39052)	DRSC10442	-0.2	-0.2		
14	CG17167 (GeneID 3354991)	DRSC20902	0.2	-0.5		
15	CG17167 (GeneID 3354991)	DRSC20903	0	-0.5		
16	CG15211 (GeneID 32006)	DRSC19657	-0.3	-0.8		
17	SelT (GeneID 33725)	DRSC02732	-0.3	-0.1		
18	Pak3 (GeneID 41995)	DRSC15017	-0.3	-0.6		
19	CG8202 (GeneID 41043)	DRSC16396	-0.2	-0.3		
20	Chi (GeneID 37837)	DRSC04602	-0.4	-0.8		
21	smg (GeneID 39034)	DRSC11397	-0.1	-0.2		
22	wuc (GeneID 36401)	DRSC06152	-0.2	0		
23	CG6766 (GeneID 34619)	DRSC02991	-0.2	-0.8	-0.2	-0.4
24	CG14105 (GeneID 39507)	DRSC10107	-0.3	-0.5		
25	LeuRS-m (GeneID 38581)	DRSC08595	-0.4	-0.1		
26	CG15731 (GeneID 32194)	DRSC19698	-0.2	0		
27	CG17027 (GeneID 39742)	DRSC10238	-0.3	-0.2		
28	CG32639 (GeneID 318134)	DRSC18972	-0.2	0		
29	CG31886 (GeneID 326170)	DRSC03248	-0.4	-0.7		
30	Hydr2 (GeneID 33532)	DRSC00607	-0.3	-1		
31	CG9926 (GeneID 41700)	DRSC16582	-0.2	-0.2		
32	CG33557 (GeneID 3346145)	DRSC17854	-0.4	0.1		
33	Wdfy2 (GeneID 34425)	DRSC02822	-0.3	-0.5		
34	fok (GeneID 44380)	DRSC02103	-0.4	-0.1		
35	CG8833 (GeneID 39535)	DRSC11050	-0.3	-0.2		
36	unpg (GeneID 35942)	DRSC07713	-0.4	-0.4		
37	Sxl + CG14425 (retired record)	DRSC18721	-0.4	0.2		
38	Sxl + CG14425 (retired record)	DRSC18722	-0.2	-0.8		
39	CG33543 (GeneID 3346207)	DRSC00384	-0.1	-0.3		
40	CG33543 (GeneID 3346207)	DRSC00385	0.1	-0.1		
41	mthl5 (GeneID 41438)	DRSC16155	-0.3	-0.5		
42	CG8708 (GeneID 35792)	DRSC07240	-0.3	-0.3		
43	Pebp1 (GeneID 42644)	DRSC15354	0.2	0		
44	CG18547 (GeneID 41452)	DRSC15345	0	0		
45	CG14183 (GeneID 40192)	DRSC10182	-0.3	-0.5		
46	LKRSDH (GeneID 34064)	DRSC03015	-0.3	-0.4		
47	CG31819 (GeneID 260658)	DRSC01532	-0.3	0.5		
48	Osi1 (GeneID 40752)	DRSC12271	-0.2	-0.3		
49	CG2157 (GeneID 32018)	DRSC19836	-0.2	-0.6		
50	CG15375 (GeneID 31356)	DRSC18045	-0.3	-0.6		
51	Awh (GeneID 38451)	DRSC08140	-0.3	-0.6		
52	Rop (GeneID 38493)	DRSC08693	-0.3	-0.5		
53	CG5162 (GeneID 32709)	DRSC19935	-0.3	-0.5		
54	Sgs3 (GeneID 39288)	DRSC11280	-0.4	-0.3		
55	dsb (GeneID 38252)	DRSC08407	1.8	0.2		
56	dsb (GeneID 38252)	DRSC08542	-0.2	-0.4		
57	CG32188 (GeneID 317901)	DRSC09510	-0.2	-0.3		
58	Prp8 (GeneID 36304)	DRSC07293	5.3	4.1		
59	CG6429 (GeneID 36893)	DRSC06986	-0.3	0.3		
60	Spn85F (GeneID 41221)	DRSC14545	0.2	-0.1		
61	CG17618 (retired record) + CG45049	DRSC16163	-0.1	-0.3		
62	CG2059 (GeneID 31663)	DRSC18203	-0.2	-0.5		
63	CG17192 (GeneID 43248)	DRSC15186	-0.3	-0.2		
64	CCKLR-17D3 (GeneID 32864)	DRSC20015	0	-0.7		
65	CCKLR-17D3 (GeneID 32864)	DRSC20017	-0.4	-0.4		
66	LysX (GeneID 38122)	DRSC08678	-0.3	-0.5		
67	CG8746 (GeneID 35867)	DRSC07257	-0.2	0.2		
68	NO66 (GeneID 31374)	DRSC18252	-0.1	-0.1		
69	Pos (GeneID 43762)	DRSC15415	-0.3	-0.3		
70	CG8360 (GeneID 34122)	DRSC03085	-0.3	-0.6		
71	jef (GeneID 36634)	DRSC06198	-0.3	0.1		
72	CG31898 (GeneID 319012)	DRSC01019	-0.2	-0.1		
73	CG10700 (GeneID 35183)	DRSC02096	-0.2	-0.4		
74	CG32755 (GeneID 318192)	DRSC18397	-0.2	-0.3		
75	RhoGAP1A (GeneID 5740235)	DRSC20649	-0.4	-0.6		
76	RhoGAP1A (GeneID 5740235)	DRSC20651	-0.5	-0.7		
77	CG34429 (GeneID 5740606)	DRSC10120	-0.2	-0.5		
78	CG31560 (GeneID 40772)	DRSC12136	-0.2	0.3		
79	Diedel (GeneID 43474)	DRSC14317	-0.2	-0.2		
80	CG8768 (GeneID 36400)	DRSC07259	-0.2	-0.5		
81	MsR1 (GeneID 38298)	DRSC08615	0.1	0.6		
82	CG12111 (GeneID 31796)	DRSC17808	-0.3	-0.6		
83	Hmbs (GeneID 46140)	DRSC08632	-0.3	-0.6		
